Results as given in article PMC9110474.
No constants are given. Whether binding was seen depends on the method and setting. In cells and extracts the contact can be indirect.

The chains behind the UniProt entries cited, without tags or fusion partners.
UniProt P21796: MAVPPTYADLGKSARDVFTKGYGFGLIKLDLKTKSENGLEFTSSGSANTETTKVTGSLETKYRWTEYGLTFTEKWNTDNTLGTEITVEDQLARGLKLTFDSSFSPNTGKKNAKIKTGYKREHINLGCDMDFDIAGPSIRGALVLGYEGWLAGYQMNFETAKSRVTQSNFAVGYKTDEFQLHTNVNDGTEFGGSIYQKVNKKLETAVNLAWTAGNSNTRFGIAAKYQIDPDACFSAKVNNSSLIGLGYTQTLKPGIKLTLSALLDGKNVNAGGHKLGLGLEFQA
UniProt P99999: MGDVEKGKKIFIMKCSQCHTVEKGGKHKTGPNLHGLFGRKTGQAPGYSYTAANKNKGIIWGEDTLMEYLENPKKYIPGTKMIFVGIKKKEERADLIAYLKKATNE
UniProt Q9BXM7: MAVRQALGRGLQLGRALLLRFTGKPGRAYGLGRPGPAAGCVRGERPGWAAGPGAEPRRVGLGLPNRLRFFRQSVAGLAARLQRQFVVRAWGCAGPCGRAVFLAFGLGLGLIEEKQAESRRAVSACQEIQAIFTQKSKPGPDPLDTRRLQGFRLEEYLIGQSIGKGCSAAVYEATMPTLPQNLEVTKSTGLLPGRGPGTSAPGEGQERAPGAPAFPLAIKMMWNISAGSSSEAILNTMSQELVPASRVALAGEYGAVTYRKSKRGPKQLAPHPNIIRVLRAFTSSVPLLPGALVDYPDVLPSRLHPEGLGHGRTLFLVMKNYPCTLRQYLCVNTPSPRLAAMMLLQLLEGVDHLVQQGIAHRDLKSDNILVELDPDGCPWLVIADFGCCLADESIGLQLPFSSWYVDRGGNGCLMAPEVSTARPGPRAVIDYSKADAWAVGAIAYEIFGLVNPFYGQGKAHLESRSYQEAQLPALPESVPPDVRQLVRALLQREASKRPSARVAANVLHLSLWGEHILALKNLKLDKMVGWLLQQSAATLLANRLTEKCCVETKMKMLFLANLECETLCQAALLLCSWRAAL

What was measured:
[1] = target: VDAC1 (endogenous) (human (endogenous in HeLa or U2OS mitochondria)) (UniProt P21796); assay: co-IP; after import of radiolabeled PINK1 into depolarized (CCCP) mitochondria, digitonin lysate incubated 30 min at 4 °C with antibody (anti-TOM22; controls anti-Cytochrome C, anti-VDAC1) and protein A beads; supernatant on BN-PAGE, eluate on SDS-PAGE with autoradiography and western blot
[2] = target: Cytochrome C (endogenous) (human (endogenous in HeLa or U2OS mitochondria)) (UniProt P99999); assay: as above

binding [1]: no binding
binding [2]: no binding
Substance: PINK1 (human, native, radiolabeled) (from UniProt Q9BXM7 1-581)
